Data taken from the supplement of paper PMC12823440, “Inhibitors supercharge kinase turnover through native proteolytic circuits” (Nature, 2025).
Where a name gives a salt, the structure may show the parent alone. The list shows a part of the results. Hit calls seldom repeat between salt and free forms of one compound.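 Kinases were expressed as nanoluciferase fusions in K562 cells and luminescence was read every 4 h between 2 and 18 h as percent of control, DMSO set to 100% and a positive control to 0%. A time point counts as decreased when the signal drops significantly (2 sigma). The hit call is the authors' own, does not follow from the count of time points alone, and its rule is not shown.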

The chains behind the UniProt entries cited, without tags or fusion partners. Where a name states a change or a piece, a line headed by the entry shows the natural chain unless it says otherwise.
UniProt Q01974, whole entry: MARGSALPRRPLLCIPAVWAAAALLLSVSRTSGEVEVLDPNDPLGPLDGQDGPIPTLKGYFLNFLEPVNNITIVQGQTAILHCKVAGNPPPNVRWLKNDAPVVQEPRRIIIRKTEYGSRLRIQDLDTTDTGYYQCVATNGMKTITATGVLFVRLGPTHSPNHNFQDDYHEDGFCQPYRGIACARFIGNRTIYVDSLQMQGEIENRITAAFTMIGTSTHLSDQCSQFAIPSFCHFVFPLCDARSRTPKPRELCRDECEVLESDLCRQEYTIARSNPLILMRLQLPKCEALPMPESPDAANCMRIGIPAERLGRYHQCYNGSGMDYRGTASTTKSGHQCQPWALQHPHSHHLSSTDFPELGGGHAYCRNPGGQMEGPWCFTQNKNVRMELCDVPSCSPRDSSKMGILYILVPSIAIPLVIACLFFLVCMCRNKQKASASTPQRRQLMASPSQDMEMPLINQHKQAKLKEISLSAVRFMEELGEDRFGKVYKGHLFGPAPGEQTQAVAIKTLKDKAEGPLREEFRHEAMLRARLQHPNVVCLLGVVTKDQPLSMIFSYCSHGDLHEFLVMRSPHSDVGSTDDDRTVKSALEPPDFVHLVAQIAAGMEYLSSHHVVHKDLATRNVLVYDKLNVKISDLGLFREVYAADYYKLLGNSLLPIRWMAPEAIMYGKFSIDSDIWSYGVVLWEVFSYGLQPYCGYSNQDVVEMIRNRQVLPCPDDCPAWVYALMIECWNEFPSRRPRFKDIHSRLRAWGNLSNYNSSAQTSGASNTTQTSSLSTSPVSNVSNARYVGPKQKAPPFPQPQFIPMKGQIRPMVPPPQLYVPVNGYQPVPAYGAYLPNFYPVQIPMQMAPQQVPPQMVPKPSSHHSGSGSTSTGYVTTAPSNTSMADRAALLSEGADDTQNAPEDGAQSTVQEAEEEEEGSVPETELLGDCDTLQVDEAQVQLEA
UniProt Q15418, whole entry: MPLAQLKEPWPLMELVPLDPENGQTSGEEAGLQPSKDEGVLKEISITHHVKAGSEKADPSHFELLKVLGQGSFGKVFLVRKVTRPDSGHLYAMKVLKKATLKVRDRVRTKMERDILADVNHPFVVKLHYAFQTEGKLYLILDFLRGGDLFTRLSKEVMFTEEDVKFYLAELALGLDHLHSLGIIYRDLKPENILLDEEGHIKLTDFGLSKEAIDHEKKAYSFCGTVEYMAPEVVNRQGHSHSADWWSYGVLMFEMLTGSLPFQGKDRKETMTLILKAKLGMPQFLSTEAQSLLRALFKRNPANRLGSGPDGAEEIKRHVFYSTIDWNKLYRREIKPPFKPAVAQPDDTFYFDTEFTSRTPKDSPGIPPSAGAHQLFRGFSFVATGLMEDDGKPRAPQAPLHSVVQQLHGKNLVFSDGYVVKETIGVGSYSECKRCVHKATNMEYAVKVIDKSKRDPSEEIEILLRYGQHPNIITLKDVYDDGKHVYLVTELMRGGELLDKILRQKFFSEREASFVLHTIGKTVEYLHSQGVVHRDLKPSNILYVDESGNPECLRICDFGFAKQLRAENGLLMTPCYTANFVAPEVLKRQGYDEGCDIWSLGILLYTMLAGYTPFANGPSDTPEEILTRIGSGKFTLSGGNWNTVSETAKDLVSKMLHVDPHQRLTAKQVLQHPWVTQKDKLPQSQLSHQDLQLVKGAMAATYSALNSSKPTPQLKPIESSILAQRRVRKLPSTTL
UniProt Q9NYA1, whole entry: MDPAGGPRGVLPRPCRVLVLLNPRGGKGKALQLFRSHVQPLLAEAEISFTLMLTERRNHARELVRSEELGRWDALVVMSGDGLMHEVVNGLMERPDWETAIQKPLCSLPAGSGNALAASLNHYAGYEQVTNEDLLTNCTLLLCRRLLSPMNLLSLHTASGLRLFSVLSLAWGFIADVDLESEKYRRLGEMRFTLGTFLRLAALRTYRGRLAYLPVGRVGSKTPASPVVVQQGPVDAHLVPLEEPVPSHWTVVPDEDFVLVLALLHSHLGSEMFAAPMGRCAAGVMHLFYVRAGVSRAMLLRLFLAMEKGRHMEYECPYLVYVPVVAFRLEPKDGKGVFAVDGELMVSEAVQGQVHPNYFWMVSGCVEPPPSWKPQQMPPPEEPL
UniProt Q15208: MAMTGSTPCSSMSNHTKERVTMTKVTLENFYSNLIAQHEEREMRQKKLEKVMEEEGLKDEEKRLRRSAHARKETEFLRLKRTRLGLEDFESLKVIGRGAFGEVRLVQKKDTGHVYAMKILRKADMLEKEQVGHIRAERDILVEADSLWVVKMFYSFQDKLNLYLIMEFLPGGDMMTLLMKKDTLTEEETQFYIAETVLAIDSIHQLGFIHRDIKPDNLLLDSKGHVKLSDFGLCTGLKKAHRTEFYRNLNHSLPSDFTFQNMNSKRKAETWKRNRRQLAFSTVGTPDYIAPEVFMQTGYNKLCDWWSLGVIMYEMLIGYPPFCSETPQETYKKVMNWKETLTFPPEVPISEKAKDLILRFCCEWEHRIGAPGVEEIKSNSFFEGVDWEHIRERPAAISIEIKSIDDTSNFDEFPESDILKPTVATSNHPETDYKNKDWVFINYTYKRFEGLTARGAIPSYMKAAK
UniProt P42680: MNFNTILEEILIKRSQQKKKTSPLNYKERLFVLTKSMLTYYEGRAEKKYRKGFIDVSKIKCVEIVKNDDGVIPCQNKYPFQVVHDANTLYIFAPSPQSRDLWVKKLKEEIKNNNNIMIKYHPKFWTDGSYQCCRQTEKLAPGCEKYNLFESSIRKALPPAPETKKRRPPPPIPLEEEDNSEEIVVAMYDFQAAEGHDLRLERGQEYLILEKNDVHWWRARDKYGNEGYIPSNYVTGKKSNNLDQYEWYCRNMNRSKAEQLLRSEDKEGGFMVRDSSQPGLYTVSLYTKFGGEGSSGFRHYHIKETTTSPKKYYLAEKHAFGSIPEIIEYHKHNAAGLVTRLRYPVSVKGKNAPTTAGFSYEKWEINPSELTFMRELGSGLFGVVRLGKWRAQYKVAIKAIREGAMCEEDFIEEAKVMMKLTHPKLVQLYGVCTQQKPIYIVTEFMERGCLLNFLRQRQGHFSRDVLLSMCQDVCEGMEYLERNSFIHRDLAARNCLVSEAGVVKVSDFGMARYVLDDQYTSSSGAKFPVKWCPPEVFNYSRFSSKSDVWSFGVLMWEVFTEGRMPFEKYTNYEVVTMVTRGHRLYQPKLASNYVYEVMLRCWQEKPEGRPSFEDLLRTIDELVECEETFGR
UniProt P29597: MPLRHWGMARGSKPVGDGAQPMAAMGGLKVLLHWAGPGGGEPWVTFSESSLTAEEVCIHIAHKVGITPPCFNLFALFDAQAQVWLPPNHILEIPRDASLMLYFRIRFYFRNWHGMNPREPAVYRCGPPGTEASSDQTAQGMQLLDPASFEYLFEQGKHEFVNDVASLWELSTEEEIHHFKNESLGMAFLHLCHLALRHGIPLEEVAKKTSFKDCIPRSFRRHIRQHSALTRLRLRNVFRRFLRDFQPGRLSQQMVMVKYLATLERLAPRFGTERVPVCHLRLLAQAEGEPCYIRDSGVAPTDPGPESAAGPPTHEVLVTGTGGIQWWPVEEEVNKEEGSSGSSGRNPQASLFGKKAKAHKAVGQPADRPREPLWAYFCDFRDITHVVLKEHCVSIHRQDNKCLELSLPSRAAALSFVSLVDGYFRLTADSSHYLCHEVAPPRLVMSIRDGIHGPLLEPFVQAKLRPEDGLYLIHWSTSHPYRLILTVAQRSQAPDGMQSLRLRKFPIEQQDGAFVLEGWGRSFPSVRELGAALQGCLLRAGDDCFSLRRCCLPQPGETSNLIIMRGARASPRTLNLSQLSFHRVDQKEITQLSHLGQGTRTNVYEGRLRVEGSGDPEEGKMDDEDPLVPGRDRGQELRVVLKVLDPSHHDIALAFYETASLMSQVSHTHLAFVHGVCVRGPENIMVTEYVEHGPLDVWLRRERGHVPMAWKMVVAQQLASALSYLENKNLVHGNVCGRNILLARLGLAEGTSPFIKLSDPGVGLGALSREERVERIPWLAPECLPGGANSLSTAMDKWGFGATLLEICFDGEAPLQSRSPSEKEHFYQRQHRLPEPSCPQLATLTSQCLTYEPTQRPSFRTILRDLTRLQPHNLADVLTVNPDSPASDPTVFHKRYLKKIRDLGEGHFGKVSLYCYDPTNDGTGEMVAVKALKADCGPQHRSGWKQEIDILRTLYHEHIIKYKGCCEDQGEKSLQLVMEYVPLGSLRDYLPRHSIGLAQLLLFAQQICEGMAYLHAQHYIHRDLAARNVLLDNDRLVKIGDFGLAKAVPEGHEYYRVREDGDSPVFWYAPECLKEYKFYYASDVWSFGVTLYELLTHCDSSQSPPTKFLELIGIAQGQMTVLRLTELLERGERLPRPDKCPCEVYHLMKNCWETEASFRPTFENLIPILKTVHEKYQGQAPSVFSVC
UniProt P07947, whole entry, looked up: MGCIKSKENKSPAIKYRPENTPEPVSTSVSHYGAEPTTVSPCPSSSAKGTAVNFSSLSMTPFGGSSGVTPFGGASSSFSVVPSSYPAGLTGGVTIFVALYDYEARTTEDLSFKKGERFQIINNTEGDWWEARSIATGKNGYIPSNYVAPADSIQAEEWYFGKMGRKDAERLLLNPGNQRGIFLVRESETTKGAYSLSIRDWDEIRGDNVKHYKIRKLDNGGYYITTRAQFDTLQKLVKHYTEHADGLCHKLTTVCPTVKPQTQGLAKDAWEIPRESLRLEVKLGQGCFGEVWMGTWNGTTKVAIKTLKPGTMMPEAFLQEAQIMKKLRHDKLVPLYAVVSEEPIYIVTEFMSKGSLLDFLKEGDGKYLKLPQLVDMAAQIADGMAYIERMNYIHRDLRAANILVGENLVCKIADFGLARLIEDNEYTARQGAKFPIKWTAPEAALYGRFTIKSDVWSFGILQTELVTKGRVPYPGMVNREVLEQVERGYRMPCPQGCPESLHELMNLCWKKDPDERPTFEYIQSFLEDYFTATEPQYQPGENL
UniProt P43403: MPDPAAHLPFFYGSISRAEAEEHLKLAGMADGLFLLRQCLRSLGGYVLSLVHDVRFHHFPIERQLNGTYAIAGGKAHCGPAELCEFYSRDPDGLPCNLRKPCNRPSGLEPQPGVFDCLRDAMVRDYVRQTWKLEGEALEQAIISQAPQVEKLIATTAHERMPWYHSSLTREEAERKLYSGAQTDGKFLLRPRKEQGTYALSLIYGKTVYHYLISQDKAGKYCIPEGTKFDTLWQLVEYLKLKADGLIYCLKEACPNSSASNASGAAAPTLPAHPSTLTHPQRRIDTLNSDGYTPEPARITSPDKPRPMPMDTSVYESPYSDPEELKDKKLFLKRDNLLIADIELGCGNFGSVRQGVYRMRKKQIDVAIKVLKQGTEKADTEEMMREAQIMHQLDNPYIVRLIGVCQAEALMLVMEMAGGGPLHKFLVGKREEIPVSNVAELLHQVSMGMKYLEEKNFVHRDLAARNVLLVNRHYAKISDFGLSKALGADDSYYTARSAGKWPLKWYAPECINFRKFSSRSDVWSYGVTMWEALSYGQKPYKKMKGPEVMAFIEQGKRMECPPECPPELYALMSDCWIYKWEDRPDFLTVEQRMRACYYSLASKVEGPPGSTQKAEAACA
UniProt P11802: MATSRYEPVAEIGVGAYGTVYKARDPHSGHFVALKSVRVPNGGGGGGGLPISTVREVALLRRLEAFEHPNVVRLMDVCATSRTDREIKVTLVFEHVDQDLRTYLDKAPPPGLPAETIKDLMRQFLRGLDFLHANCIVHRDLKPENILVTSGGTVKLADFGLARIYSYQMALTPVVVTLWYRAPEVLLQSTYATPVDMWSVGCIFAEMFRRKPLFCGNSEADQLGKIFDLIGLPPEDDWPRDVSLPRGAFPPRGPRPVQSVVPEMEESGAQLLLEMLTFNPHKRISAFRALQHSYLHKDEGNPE
UniProt P50613: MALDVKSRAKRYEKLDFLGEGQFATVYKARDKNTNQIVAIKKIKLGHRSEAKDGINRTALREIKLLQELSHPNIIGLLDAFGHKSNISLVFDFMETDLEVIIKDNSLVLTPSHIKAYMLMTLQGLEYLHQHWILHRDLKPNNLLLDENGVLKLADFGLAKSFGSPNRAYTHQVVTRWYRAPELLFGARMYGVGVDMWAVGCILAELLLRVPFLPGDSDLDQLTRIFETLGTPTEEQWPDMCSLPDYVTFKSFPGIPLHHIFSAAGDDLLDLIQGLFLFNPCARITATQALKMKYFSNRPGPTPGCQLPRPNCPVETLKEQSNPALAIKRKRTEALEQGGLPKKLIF
UniProt P50750, whole entry: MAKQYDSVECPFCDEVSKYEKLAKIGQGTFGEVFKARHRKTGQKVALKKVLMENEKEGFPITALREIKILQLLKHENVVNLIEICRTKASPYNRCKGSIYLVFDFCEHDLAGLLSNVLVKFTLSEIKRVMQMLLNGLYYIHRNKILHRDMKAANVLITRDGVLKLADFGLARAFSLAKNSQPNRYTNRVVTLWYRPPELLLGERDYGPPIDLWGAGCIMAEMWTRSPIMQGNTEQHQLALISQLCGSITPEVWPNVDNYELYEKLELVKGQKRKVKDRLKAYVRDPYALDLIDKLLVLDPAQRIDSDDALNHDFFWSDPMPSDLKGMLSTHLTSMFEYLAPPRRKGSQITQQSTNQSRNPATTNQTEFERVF

Key:
Settings in all cases: K562; 2-18 h
ROR2 = ROR2 (UniProt Q01974); experiment: number of time points (of 5) at which kinase-Nluc abundance scored as decreased, DMSO-normalised (count); higher = more persistent destabilization
RPS6KA1 = RPS6KA1 (UniProt Q15418); experiment: as above
SPHK1 = SPHK1 (UniProt Q9NYA1); experiment: as above
SRC = SRC (UniProt P12931); experiment: as above
STK24 = STK24 (UniProt Q9Y6E0); experiment: as above
STK38 = STK38 (UniProt Q15208); experiment: as above
SYK = SYK (UniProt P43405); experiment: as above
TEC = TEC (UniProt P42680); experiment: as above
TYK2 = TYK2 (UniProt P29597); experiment: as above
ULK3 = ULK3 (UniProt Q6PHR2); experiment: as above
YES1 = YES1 (UniProt P07947); experiment: as above
ZAK = ZAK (UniProt Q9NYL2); experiment: as above
ZAP70 = ZAP70 (UniProt P43403); experiment: as above
CDK4 = CDK4 (UniProt P11802); experiment: number of time points (of 4; 2 h point missing) at which kinase-Nluc abundance scored as decreased, DMSO-normalised (count); higher = more persistent destabilization
CDK7 = CDK7 (UniProt P50613); experiment: as above
CDK9 = CDK9 (UniProt P50750); experiment: as above

Compound	number of time points (ROR2)	number of time points (RPS6KA1)	number of time points (SPHK1)	number of time points (SRC)	number of time points (STK24)	number of time points (STK38)	number of time points (SYK)	number of time points (TEC)	number of time points (TYK2)	number of time points (ULK3)	number of time points (YES1)	number of time points (ZAK)	number of time points (ZAP70)	number of time points (CDK4)	number of time points (CDK7)	number of time points (CDK9)
O=C(O)/C=C(\CCc1ccc(Cl)cc1)c1ccccc1 (10 µM)	0	0	0	0	0	0	0	0	0	0	0	0	0	0	0	0
Nc1[nH]nc2nnc(-c3c(-c4ccccc4)nn4ccccc34)cc12 (10 µM)	0	0	0	0	0	0	0	0	0	0	0	0	0	0	0	0
COc1ccc(Br)c(C=O)c1O [6-Bromo-2-hydroxy-3-methoxybenzaldehyde] (10 µM)	0	0	0	0	0	0	0	0	0	0	0	0	0	0	0	0
COc1ccc2nc3ccc(OC)cc3c(SCCCN)c2c1 (10 µM)	0	0	0	0	0	0	1	0	0	2	2	1	0	0	2	0
CCC(F)(F)c1cc(N2CCC(S(C)(=O)=O)CC2)nc2sc(C(N)=O)c(N)c12 (10 µM)	0	0	0	0	0	0	0	0	0	0	0	0	0	0	0	0
CC(=O)O[C@@H]1[C@@H](OC(C)=O)[C@@H](O)[C@H](Oc2c(-c3ccc(O)cc3)oc3cc(O)cc(O)c3c2=O)O[C@H]1C (10 µM)	0	0	0	0	0	0	0	0	0	0	0	0	0	0	0	0
O=S(=O)(c1ccc(O)cc1O)N1Cc2cc(O)cc(O)c2C1 (10 µM)	0	0	0	0	0	0	0	0	0	0	0	0	0	0	0	0
O=C1Cc2ccccc2N1 [Oxindole] (10 µM)	0	0	0	0	0	0	0	0	0	0	0	0	0	0	0	0
CN(C)c1ccc(/C=C2\C(=O)Nc3ccccc32)c2ccccc12 (10 µM)	0	0	2	1	0	0	1	0	0	0	0	0	0	0	1	0
CC(C)n1c(CO)nc2c(F)cc(-c3nc(Nc4ccc(CN5CCNCC5)cn4)ncc3F)cc21 (10 µM)	0	0	0	0	0	1	0	3	4	0	2	0	0	0	2	4
COc1cc(Nc2ccnc3ccc(Br)cc23)cc(OC)c1OC (2.5 µM)	0	0	0	0	0	0	0	0	1	0	0	0	0	0	0	0
CC/C(=C(\c1ccccc1)c1ccc(OCCNC)cc1)c1ccccc1 [N-Desmethyltamoxifen (hydrochloride)] (2.5 µM)	0	0	0	0	0	0	0	0	0	0	0	0	0	0	0	0
CO[C@]1(C(=O)N[C@@H](C)c2ccc(-n3cc(F)cn3)nc2)CC[C@H](c2nc(C)cc(Nc3cc(C)[nH]n3)n2)CC1 [Pralsetinib] (10 µM)	0	0	0	0	0	0	0	0	0	0	0	0	0	0	0	0
Nc1ccc(C(=O)Nc2cccc(-c3nc(N4CCOCC4)c4oc5ncccc5c4n3)c2)cn1 (10 µM)	0	0	0	0	0	0	0	0	0	2	0	0	0	0	0	0
C[C@@H]1CN(Cc2ccc(F)cc2)[C@@H](C)CN1C(=O)c1cc2c(C(=O)C(=O)N(C)C)cn(C)c2cc1Cl [Talmapimod] (10 µM)	0	0	0	0	0	0	0	0	0	0	0	0	0	0	0	0
COc1cc2ncnc(Nc3cc(Br)c(O)c(Br)c3)c2cc1OC (2.5 µM)	0	0	0	0	0	0	0	0	0	0	0	0	0	0	0	0
CCCCNc1ncc2c(-c3ccc(F)cc3)nn(CC3CCC(N)CC3)c2n1 (stereo not drawn) (2.5 µM)	0	0	0	0	0	0	0	0	0	0	0	0	0	0	0	0
Cc1cccc(CC(=O)N2CCc3c2ccc(-c2cn(C)c4ncnc(N)c24)c3F)n1 (10 µM)	0	0	5	0	0	0	0	0	0	0	0	0	0	0	0	0
C[C@H](Nc1cc2c(-c3ccc4c(c3)OCO4)noc2cn1)c1ccccc1 (10 µM)	0	0	0	0	0	0	0	0	0	0	0	0	0	1	0	0
CCCS(=O)(=O)N[C@H]1C[C@@H](N(C)c2ncnc3[nH]ccc23)C1 [Abrocitinib] (10 µM)	0	0	0	0	0	0	0	0	0	0	0	0	0	0	0	0
O=C(CCl)c1c[nH]c2ccccc12 (2.5 µM)	0	0	0	0	0	0	0	0	0	0	0	0	0	0	0	0
N#Cc1cnc(Nc2cc(NC[C@H]3CNCCO3)c(C(F)(F)F)cn2)cn1 (10 µM)	0	0	0	1	0	0	0	0	0	1	0	0	0	0	1	0
CC(C1CC1)n1cnc2c(NCc3cccc(C(F)(F)F)c3)nc(NCCN(C)C)nc21 (stereo not drawn) (10 µM)	0	0	0	0	0	0	0	0	0	0	0	0	0	0	0	0
Cc1ccc2c(NS(=O)(=O)c3ccccc3Cl)cccc2c1Oc1ncccc1-c1ccnc(N[C@H]2CCCNC2)n1 (2.5 µM)	0	0	0	0	0	0	0	0	0	0	0	0	0	0	0	0
O=C(NC[C@H](O)CO)c1ccncc1Nc1ccc(I)cc1F [Pimasertib] (10 µM)	0	0	0	0	0	1	0	0	1	1	0	0	0	0	1	0
Cc1ccc(C2CC(=O)NC(SCC(=O)Nc3nccs3)=C2C#N)cc1 (stereo not drawn) [Necrostatin-34] (10 µM)	0	0	0	0	0	0	0	0	0	0	0	0	0	0	0	0
CC(ONC(=O)c1cc(C(F)(F)F)cc(C(F)(F)F)c1)C(=O)Nc1ccc(Cl)cc1 (stereo not drawn) (2.5 µM)	0	0	0	0	0	0	0	0	5	0	0	0	0	0	4	4
CNCc1ccccc1Sc1cccc2ccccc12 [IFN alpha-IFNAR-IN-1 (hydrochloride)] (10 µM)	0	0	0	0	0	2	0	1	3	0	0	0	0	0	2	0

Whole records as entered above. Values in the order: number of time points (ROR2)	number of time points (RPS6KA1)	number of time points (SPHK1)	number of time points (SRC)	number of time points (STK24)	number of time points (STK38)	number of time points (SYK)	number of time points (TEC)	number of time points (TYK2)	number of time points (ULK3)	number of time points (YES1)	number of time points (ZAK)	number of time points (ZAP70)	number of time points (CDK4)	number of time points (CDK7)	number of time points (CDK9)
CC/C(=C(\c1ccccc1)c1ccc(OCCNC)cc1)c1ccccc1 [N-Desmethyltamoxifen (hydrochloride)] (2.5 µM) as listed: 0	0	0	0	0	0	0	0	0	0	0	0	0	0	0	0
Cc1ccc2c(NS(=O)(=O)c3ccccc3Cl)cccc2c1Oc1ncccc1-c1ccnc(N[C@H]2CCCNC2)n1 (2.5 µM) as listed: 0	0	0	0	0	0	0	0	0	0	0	0	0	0	0	0
